Data: the supplement of paper PMC8960247
Structures can show the parent of a compound that is named as a salt. The data scatter; read single values as rough.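 Immortalized human renal angiomyolipoma cells with an empty vector keep TSC2 lost. A luminescent ATP assay measured viability, normalized per plate to vehicle-treated wells, in low-serum medium where TSC2-rescued cells fail to grow.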

Test system: 621-102 (TSC2-deficient)
Assay: relative viability vs DMSO (fraction); higher = less cytotoxic
Settings: serum: 0.1% FBS, 72 h

| SMILES | relative viability (0.0128 nM) | relative viability (0.064 nM) | relative viability (0.32 nM) | relative viability (1.6 nM) | relative viability (8 nM) | relative viability (40 nM) | relative viability (200 nM) | relative viability (1000 nM) | relative viability (5000 nM) |
| --- | --- | --- | --- | --- | --- | --- | --- | --- | --- |
| Nc1cc(C(Cl)=C(Cl)Cl)c(S(N)(=O)=O)cc1S(N)(=O)=O [Clorsulon] | 0.452 | 0.688 | 0.906 | 0.88 | 0.722 | 0.694 | 0.916 | 0.474 | 0.604 |
| COc1ccnc2[nH]cc(C(=O)C(=O)N3CCN(C(=O)c4ccccc4)C[C@H]3C)c12 [BMS-806] | 0.797 | 0.822 | 0.87 | 0.822 | 0.851 | 0.73 | 0.837 | 0.808 | 0.739 |
| Cn1cc(CNCC2CCN(c3ncc(C(=O)NO)cn3)CC2)c2ccccc21 | 0.619 | 0.854 | 0.79 | 0.795 | 0.449 | 0.0917 | 0.0131 | 0.0136 | 0.0109 |
| Cc1cc(Nc2cc(N3CCN(C)CC3)nc(Sc3ccc(NC(=O)C4CC4)cc3)n2)n[nH]1 [VX-680] | 0.653 | 0.829 | 0.74 | 0.808 | 0.764 | 0.652 | 0.0659 | 0.0269 | 0.0217 |
| CCCCC(=O)N(Cc1ccc(-c2ccccc2-c2nnn[nH]2)cc1)[C@H](C(=O)O)C(C)C [Valsartan] | 0.96 | 0.898 | 0.865 | 0.877 | 0.916 | 0.79 | 0.82 | 0.768 | 0.786 |
| CCOc1ccccc1OCCN[C@H](C)Cc1ccc(OC)c(S(N)(=O)=O)c1 [Tamsulosin] | 0.675 | 0.77 | 0.787 | 0.826 | 0.827 | 0.798 | 0.854 | 0.814 | 0.763 |
| Cc1nc(-c2ccc(OCC(C)C)c(C#N)c2)sc1C(=O)O [Febuxostat] | 1.22 | 1.29 | 1.37 | 1.39 | 1.14 | 0.74 | 1.03 | 0.924 | 0.737 |
| C=C1C[C@@H]2[C@H](CC[C@]3(C)C(=O)CC[C@@H]23)[C@@]2(C)C=CC(=O)C=C12 [Exemestane] | 1.49 | 1.53 | 1.92 | 1.4 | 0.024 | 0.00955 | 0.00877 | 0.00845 | 0.00753 |
| CC(=O)O[C@H]1C[C@@H]2CC[C@@H]3[C@H](CC[C@@]4(C)[C@H]3C[C@H]([N+]3(C)CCCCC3)[C@@H]4OC(C)=O)[C@@]2(C)C[C@@H]1[N+]1(C)CCCCC1 [Pancuronium dibromide] | 0.705 | 0.735 | 0.821 | 0.86 | 0.852 | 0.818 | 0.843 | 0.693 | 0.308 |
| O=C1[C@H](Cc2ccc(O)cc2)N2C(=O)CCN(C(=O)NCc3ccccc3)[C@H]2CN1Cc1cccc2ccccc12 [ICG-001] | 1.03 | 1.08 | 1.09 | 0.997 | 0.713 | 0.738 | 0.817 | 0.457 | 0.462 |
| Clc1ccc(C2(c3ccc(-c4cn[nH]c4)cc3)CCNCC2)cc1 [AT7867] | 0.852 | 0.854 | 0.875 | 0.862 | 0.996 | 0.859 | 0.619 | 0.268 | 0.0543 |
| Cc1nnc(C(C)C)n1C1C[C@H]2CC[C@@H](C1)N2CC[C@H](NC(=O)C1CCC(F)(F)CC1)c1ccccc1 (stereo in doubt) [Maraviroc] | 0.704 | 0.771 | 0.693 | 0.81 | 0.755 | 0.732 | 0.734 | 0.835 | 0.837 |
| Cc1cnc(Nc2ccc(N3CCN(C)CC3)cc2)nc1Nc1cccc(S(=O)(=O)NC(C)(C)C)c1 | 0.882 | 0.834 | 0.815 | 0.823 | 0.834 | 0.75 | 0.628 | 0.445 | 0.0238 |
| Nc1nc(F)nc2c1ncn2[C@@H]1O[C@H](CO)[C@@H](O)[C@@H]1O [Fludarabine] | 1.35 | 1.37 | 1.44 | 0.832 | 0.717 | 0.607 | 1.13 | 1.05 | 0.238 |
| FC(F)(F)c1ccc(/C=C/c2nc(COc3ccc(CCCCn4ccnn4)cc3)co2)cc1 [Mubritinib (TAK 165)] | 0.992 | 0.955 | 0.952 | 1 | 0.867 | 1.02 | 0.889 | 0.64 | 0.663 |
| COc1cc2c(cc1O)CC[C@@H]1[C@@H]2CC[C@]2(C)[C@@H](O)CC[C@@H]12 [2-Methoxyestradiol] | 1.29 | 1.36 | 1.42 | 1.02 | 0.503 | 0.526 | 0.922 | 0.248 | 0.0381 |
| Cc1cc(Cl)ccc1OCCCC(=O)NO [Droxinostat] | 0.788 | 0.795 | 0.734 | 0.669 | 0.634 | 0.67 | 0.629 | 0.604 | 0.562 |

Exported bar-delimited: part of the list above
SMILES | relative viability (0.0128 nM) | relative viability (0.064 nM) | relative viability (0.32 nM) | relative viability (1.6 nM) | relative viability (8 nM) | relative viability (40 nM) | relative viability (200 nM) | relative viability (1000 nM) | relative viability (5000 nM)
Cc1nc(-c2ccc(OCC(C)C)c(C#N)c2)sc1C(=O)O [Febuxostat] | 1.22 | 1.29 | 1.37 | 1.39 | 1.14 | 0.74 | 1.03 | 0.924 | 0.737
C=C1C[C@@H]2[C@H](CC[C@]3(C)C(=O)CC[C@@H]23)[C@@]2(C)C=CC(=O)C=C12 [Exemestane] | 1.49 | 1.53 | 1.92 | 1.4 | 0.024 | 0.00955 | 0.00877 | 0.00845 | 0.00753

(continued)

| SMILES | relative viability (0.0128 nM) | relative viability (0.064 nM) | relative viability (0.32 nM) | relative viability (1.6 nM) | relative viability (8 nM) | relative viability (40 nM) | relative viability (200 nM) | relative viability (1000 nM) | relative viability (5000 nM) |
| --- | --- | --- | --- | --- | --- | --- | --- | --- | --- |
| CC(NCCc1ccc(O)cc1)C(O)c1ccc(O)cc1 (stereo unspecified) [Ritodrine HCl] | 0.857 | 0.364 | 0.834 | 0.885 | 0.836 | 0.739 | 0.759 | 0.724 | 0.706 |
| CN(C)CC/C=C1/c2ccccc2Sc2ccc(Cl)cc21 [Chlorprothixene] | 0.867 | 0.842 | 0.887 | 0.774 | 0.764 | 0.727 | 0.75 | 0.819 | 0.836 |
| Cc1cc(OCCCS(C)(=O)=O)cc(C)c1-c1cccc(COc2ccc3c(c2)OC[C@H]3CC(=O)O)c1 [TAK-875] | 0.713 | 0.799 | 0.669 | 0.176 | 0.74 | 0.667 | 0.741 | 0.781 | 0.746 |
| COC1=CC(c2cc3ccccc3[nH]2)=N/C1=C\c1[nH]c(C)cc1C [Obatoclax Mesylate] | 0.865 | 0.777 | 0.366 | 0.8 | 0.74 | 0.521 | 0.0436 | 0.0112 | 0.0124 |
| CN(C)c1ccc(-c2nc3ncc(Cl)c(N4CCN(CC(=O)Nc5nccs5)CC4)c3[nH]2)cc1 | 0.927 | 0.956 | 0.965 | 1.03 | 0.888 | 0.874 | 0.752 | 0.343 | 0.0109 |
| O=C(/C=C/c1cccc(S(=O)(=O)Nc2ccccc2)c1)NO [Belinostat (PXD101)] | 1.43 | 1.7 | 1.79 | 1.57 | 1.13 | 0.84 | 0.86 | 0.269 | 0.0349 |
| O=C(c1ccccc1)c1ccc2n1CCC2C(=O)O (stereo unspecified) [Ketorolac] | 0.394 | 0.318 | 0.509 | 0.68 | 0.699 | 0.708 | 0.662 | 0.835 | 0.837 |
| CN1[C@@H]2C[C@@H](OC(=O)[C@H](CO)c3ccccc3)C[C@H]1[C@@H]1O[C@@H]12 [Scopolamine HBr] | 0.096 | 0.364 | 0.665 | 0.785 | 0.505 | 0.653 | 0.753 | 0.892 | 0.608 |
| O=C1c2ccccc2C(=O)c2c1ccc(O)c2O [Alizarin] | 0.764 | 0.641 | 0.548 | 0.553 | 0.599 | 0.59 | 0.664 | 0.646 | 0.135 |
| COc1ccc([C@]2(C#N)CC[C@@H](C(=O)O)CC2)cc1OC1CCCC1 [Cilomilast] | 0.892 | 0.887 | 0.856 | 0.851 | 0.86 | 0.806 | 0.915 | 0.921 | 0.861 |
| Cc1cc(Nc2nc(N[C@@H](C)c3ccc(F)cc3)c(C#N)cc2F)n[nH]1 [AZ 960] | 0.659 | 0.526 | 0.589 | 0.208 | 0.121 | 0.382 | 0.462 | 0.0455 | 0.0177 |
| CC(=O)Nc1cccc(-n2c(=O)n(C3CC3)c(=O)c3c(Nc4ccc(I)cc4F)n(C)c(=O)c(C)c32)c1 | 0.812 | 0.821 | 0.828 | 0.845 | 0.812 | 0.689 | 0.513 | 0.271 | 0.11 |
| CCCNC(=O)Nc1ccc(Oc2ncnc3cc(OC)c(OC)cc23)cc1Cl [KRN 633] | 0.825 | 0.867 | 0.845 | 0.798 | 0.914 | 0.878 | 0.772 | 0.726 | 0.313 |
| O=C1CCc2cc(OCCCCc3nnnn3C3CCCCC3)ccc2N1 [Cilostazol] | 1.42 | 1.39 | 1.58 | 1.4 | 0.798 | 0.871 | 1.08 | 1.53 | 1.46 |
| CCc1cccc(CC)c1NC(=O)N1Cc2[nH]nc(NC(=O)c3ccc(N4CCN(C)CC4)cc3)c2C1 | 0.816 | 0.745 | 0.795 | 0.669 | 0.716 | 0.717 | 0.0798 | 0.00692 | 0.00614 |
| NCCCC(O)(P(=O)(O)O)P(=O)(O)O [Alendronate] | 0.571 | 0.478 | 0.566 | 0.567 | 0.629 | 0.763 | 0.571 | 0.293 | 0.0218 |
| CN(CCOc1ccc(CC2SC(=O)NC2=O)cc1)c1ccccn1 (stereo unspecified) [Rosiglitazone] | 0.74 | 0.835 | 0.803 | 0.78 | 0.796 | 0.747 | 0.81 | 0.742 | 0.614 |
